Test results published in publication doi:10.1101/2023.02.01.526551.
Results are given in words; binding and its absence hold for the method and conditions named. In cells and extracts the contact can be indirect. Some results given as binding are weak or reduced against the parent protein; the word gives no strength.

Protein sequences, listed by entry. Tags and fused reporters are not part of them. Lines headed by an entry give the natural chain unless they say otherwise; changes in a name come on top. Residues count along the entry.
UniProt Q9BXW4, 1-126: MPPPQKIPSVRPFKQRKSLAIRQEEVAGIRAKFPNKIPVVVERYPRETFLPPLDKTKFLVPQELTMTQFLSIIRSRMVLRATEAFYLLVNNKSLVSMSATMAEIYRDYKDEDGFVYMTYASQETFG

Assays:
Experiment in all cases: co-IP
[1] = molecular target: BAG3 I454T single LIR mutant (human) (UniProt O95817)
[2] = molecular target: BAG3 Y247S single LIR mutant (human) (UniProt O95817)
[3] = molecular target: BAG3 Y86S single LIR mutant (human) (UniProt O95817)
[4] = molecular target: BAG3 Y93S single LIR mutant (human) (UniProt O95817)
[5] = molecular target: wild-type human BAG3 (Bcl-2 associated athanogene 3) (human) (UniProt O95817)
[6] = molecular target: BAG3 Y205S single LIR mutant (human) (UniProt O95817)

Measured: binding

LC3A (microtubule-associated proteins 1A/1B light chain 3A) (from UniProt Q9H492 1-121)
binds: [1] | [2] | [3] | [4] | [5]

LC3C (microtubule-associated proteins 1A/1B light chain 3C) (from UniProt Q9BXW4 1-126)
binds: [1] | [6] | [2] | [3] | [4] | [5]
